These are yes or no findings as the source states them, for the method shown. In cells and extracts the contact can be indirect. Binding can be weak; no strength is given.
Legend:
[1] = biological target: E-cadherin (human (endogenous in T47D)); experiment: FRET or BRET; acceptor photobleaching FRET on fixed, immunostained cells (donor FITC, acceptor rhodamine on secondary antibodies), confocal microscopy; cells treated with EGF (100 nM) or E2 (10 nM; 30 minutes or 6 hours)
[2] = biological target: β-tubulin (human (endogenous in T47D)); experiment: as above
[3] = biological target: E-cadherin (human (endogenous in T47D)); experiment: co-IP; endogenous proteins of T47D cells lysed in RIPA buffer; ~2 mg lysate with 2 ug anti-E-cadherin or anti-β-catenin antibody overnight at 4°C, protein A/G agarose beads, western blot; cells with or without EGTA (4 mM), Ca2+ (1.8 mM) added after EGTA; irrelevant IgG as negative control

Measured: binding

B1: Small G protein signalling modulator 2 (SGSM2) (protein, UniProt O43147 1-1006)
chain: MGSAEDAVKEKLLWNVKKEVKQIMEEAVTRKFVHEDSSHIIALCGAVEACLLHQLRRRAAGFLRSDKMAALFTKVGKTCPVAGEICHKVQELQQQAEGRKPSGVSQEALRRQGSASGKAPALSPQALKHVWVRTALIEKVLDKVVQYLAENCSKYYEKEALLADPVFGPILASLLVGPCALEYTKLKTADHYWTDPSADELVQRHRIRGPPTRQDSPAKRPALGIRKRHSSGSASEDRLAACARECVESLHQNSRTRLLYGKNHVLVQPKEDMEAVPGYLSLHQSAESLTLKWTPNQLMNGTLGDSELEKSVYWDYALVVPFSQVVCIHCHQQKSGGTLVLVSQDGIQRPPLHFPQGGHLLSFLSCLENGLLPRGQLEPPLWTQQGKGKVFPKLRKRSSIRSVDMEEMGTGRATDYVFRIIYPGHRHEHNAGDMIEMQGFGPSLPAWHLEPLCSQGSSCLSCSSSSSPHATPSHCSCIPDRLPLRLLCESMKRQIVSRAFYGWLAHCRHLSTVRTHLSALVHHSVIPPDRPPGASAGLTKDVWSKYQKDKKNYKELELLRQVYYGGIEHEIRKDVWPFLLGHYKFGMSKKEMEQVDAVVAARYQQVLAEWKACEVVVRQREREAHPATRTKFSSGSSIDSHVQRLIHRDSTISNDVFISVDDLEPPEPQDPEDSRPKPEQEAGPGTPGTAVVEQQHSVEFDSPDSGLPSSRNYSVASGIQSSLDEGQSVGFEEEDGGGEEGSSGPGPAAHTLREPQDPSQEKPQAGELEAGEELAAVCAAAYTIELLDTVALNLHRIDKDVQRCDRNYWYFTPPNLERLRDVMCSYVWEHLDVGYVQGMCDLLAPLLVTLDNDQLAYSCFSHLMKRMSQNFPNGGAMDTHFANMRSLIQILDSELFELMHQNGDYTHFYFCYRWFLLDFKRELLYEDVFAVWEVIWAARHISSEHFVLFIALALVEAYREIIRDNNMDFTDIIKFFNERAEHHDAQEILRIARDLVHKVQMLIENK
binds: [1] | [2] | [3]
